No constants are given. Whether binding was seen depends on the method and setting. Binding seen in cells or lysates may run through a third protein. Some entries that bind do so weakly or less than the wild type.
Target: Mycobacterium tuberculosis Csm4 (Cas5), His6-tagged (Mycobacterium tuberculosis) (UniProt P9WJF6)
Experiment: pull-down

Protein sequences, listed by entry. Tags and fused reporters are not part of them.
UniProt P9WJF6: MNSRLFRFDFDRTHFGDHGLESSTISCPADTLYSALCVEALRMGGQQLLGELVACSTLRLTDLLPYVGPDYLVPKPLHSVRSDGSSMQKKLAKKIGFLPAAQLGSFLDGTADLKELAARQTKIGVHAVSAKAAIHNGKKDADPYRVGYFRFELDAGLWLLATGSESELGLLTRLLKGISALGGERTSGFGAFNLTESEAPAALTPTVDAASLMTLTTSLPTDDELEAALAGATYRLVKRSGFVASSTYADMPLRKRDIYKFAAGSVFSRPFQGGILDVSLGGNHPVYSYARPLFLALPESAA
UniProt P9WJF4: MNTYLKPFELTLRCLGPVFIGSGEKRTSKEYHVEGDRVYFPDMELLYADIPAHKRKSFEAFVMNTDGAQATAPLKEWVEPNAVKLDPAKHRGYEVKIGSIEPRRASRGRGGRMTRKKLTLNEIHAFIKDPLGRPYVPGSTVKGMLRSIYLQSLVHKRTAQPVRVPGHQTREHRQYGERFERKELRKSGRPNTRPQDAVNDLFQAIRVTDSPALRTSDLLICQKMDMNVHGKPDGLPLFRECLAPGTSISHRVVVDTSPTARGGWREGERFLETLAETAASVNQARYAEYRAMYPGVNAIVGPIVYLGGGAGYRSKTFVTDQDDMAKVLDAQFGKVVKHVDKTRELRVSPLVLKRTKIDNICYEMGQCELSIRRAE

Mycobacterium tuberculosis Csm5 (from UniProt P9WJF4 1-375)
binding: binds
